# Source: PubChem BioAssay AID504842 (National Center for Advancing Translational Sciences (NCATS), 2011)
# Out of some 330,000 compounds screened, about 100 (0.03%) were called active. This list was built around the results that the source calls inconclusive (neither active nor inactive); the mix of calls is not that of the screen. Calls follow the shape of the dose curve; as a rule, active = well fitted inhibition curve with a large enough effect; inconclusive = small, poorly fitted or top-dose-only effect; inactive = flat fitted curve, though single readings scatter. Where the call is inconclusive, the potency comes from a doubtful curve fit.
# Test system: Chaperonin Mm-Cpn (Methanococcus maripaludis)
# Test: Inhibitors of TCP-1 ring complex (TRiC) of Methanococcus maripaludis (MmCpn): qHTS; also: nearly all actives have a fitted effect of over 80% in size;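 as to potency: enzyme at 25 nM with ATP substrate at 10 µM during the reaction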
# Settings: purified Mm-Cpn ATPase, ADP Transcreener TR-FRET; series mostly up to 76.9 µM
# Summary of the method: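 Reaction buffer contained 30 mM Tris pH 7.4, 100 mM KCl, 5 mM MgCl2 and 1 mM DTT. Mm-CPN (25 nM final) hydrolysed 10 uM ATP over 30 min at 37°C; ADP was read by HTRF.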
# Potency is read from the fitted curve at half-maximal effect.
row,SMILES,Potency
1,COc1cc(NC(=O)c2cnc(N)s2)cc(C(=O)Nc2cccc(C(F)(F)F)c2)c1,"inconclusive: 3160 µM [inhibitor, partial curve, poor fit]"
2,COc1ccc(OC)c(C(=O)COC(=O)c2ccc([N+](=O)[O-])o2)c1,inactive
3,COc1ccc2nc(C)cc(SCC(=O)OC(C)C)c2c1,inactive
4,COc1ccc(S(=O)(=O)Nc2cccc3c2O[C@H](CN(C)S(=O)(=O)c2ccc(Cl)cc2)[C@H](C)CN([C@H](C)CO)C3=O)cc1,inactive
5,CCN(C[C@H]1N[C@@](C)(C(=O)OC)[C@H]2C(=O)N(C)C(=O)[C@@H]12)C(=O)COC,inactive
6,Cc1cc(NC(=O)COc2ccccc2C)ccc1NC(=O)c1cccs1,inactive
7,COc1ccc(CNC(=O)CN(Cc2ccccc2)S(=O)(=O)c2ccc(Cl)cc2)cc1,"inconclusive: 14.1 µM [inhibitor, single point]"
8,O=C1OC2(c3ccccc31)c1cc(I)c(O)c(I)c1Oc1c2cc(I)c(O)c1I,active: 31.6 µM
9,CCOC(=O)C1=C(O)C(=O)N(Cc2cccnc2)C1c1ccc(OC)cc1 (centres undefined),"inconclusive: 89.1 µM [inhibitor, single point]"
10,O=C(NCC(c1ccco1)N1CCN(c2ccccc2)CC1)C(=O)NC1CCCCC1 (centres undefined),"inconclusive: 20 µM [inhibitor, single point]"
11,Cc1cc2c(c(=O)o1)C(C(C)C)C(C#N)=C(N)O2 (centres undefined),"inconclusive: 20 µM [inhibitor, single point]"
12,c1ccc(-c2nnc(N3CCN(c4ccccn4)CC3)c3ccccc23)cc1,"inconclusive: 56.2 µM [inhibitor, single point]"
13,COCCN(C(=O)COC(=O)Cc1coc2cc3c(cc12)CCC3)c1c(N)n(Cc2ccccc2)c(=O)[nH]c1=O,inactive
14,CC(C)NC(=O)c1ccc(CNC(=O)OCC(F)(F)F)cc1,"inconclusive: 22.4 µM [inhibitor, single point]"
15,C=Cc1c(C)c2cc3[nH]c(cc4nc(cc5nc(cc1[nH]2)C(C)=C5CCC(=O)O)C(CCC(=O)O)=C4C)c(C)c3C=C,inactive
16,CCOc1ccc(CNC(=O)c2ccc(Sc3ccc(Cl)cc3)c(NC(C)=O)c2)cc1OC,"inconclusive: 22.4 µM [inhibitor, single point]"
17,CC(=O)Nc1cc(C(=O)NCc2ccco2)ccc1Sc1ccc(Cl)cc1,inactive
18,COc1cc(OC)cc(C(=O)NCC(=O)OCC(=O)/C=C2/N(C)c3ccccc3C2(C)C)c1,"inconclusive: 56.2 µM [inhibitor, single point]"
19,Cc1cc(-n2c(SCC(=O)Nc3ccc(F)c(F)c3)nc3n[nH]c(C)c3c2=N)ccc1Cl,"inconclusive: 15.8 µM [inhibitor, single point]"

# Exported as tab-separated lines: two of the compounds above.
row	SMILES	Potency
4	COc1ccc(S(=O)(=O)Nc2cccc3c2O[C@H](CN(C)S(=O)(=O)c2ccc(Cl)cc2)[C@H](C)CN([C@H](C)CO)C3=O)cc1	inactive
5	CCN(C[C@H]1N[C@@](C)(C(=O)OC)[C@H]2C(=O)N(C)C(=O)[C@@H]12)C(=O)COC	inactive
